Source: PMC3753647
These are yes or no findings as the source states them, for the method shown. Some results given as binding are weak or reduced against the parent protein; the word gives no strength. Sequences can lack the tags named with a protein.

Substrate: T1, S subunit of the EcoKI MTase tagged with EGFP and a hexa-Histidine tag (UniProt P05719)
T1 sequence: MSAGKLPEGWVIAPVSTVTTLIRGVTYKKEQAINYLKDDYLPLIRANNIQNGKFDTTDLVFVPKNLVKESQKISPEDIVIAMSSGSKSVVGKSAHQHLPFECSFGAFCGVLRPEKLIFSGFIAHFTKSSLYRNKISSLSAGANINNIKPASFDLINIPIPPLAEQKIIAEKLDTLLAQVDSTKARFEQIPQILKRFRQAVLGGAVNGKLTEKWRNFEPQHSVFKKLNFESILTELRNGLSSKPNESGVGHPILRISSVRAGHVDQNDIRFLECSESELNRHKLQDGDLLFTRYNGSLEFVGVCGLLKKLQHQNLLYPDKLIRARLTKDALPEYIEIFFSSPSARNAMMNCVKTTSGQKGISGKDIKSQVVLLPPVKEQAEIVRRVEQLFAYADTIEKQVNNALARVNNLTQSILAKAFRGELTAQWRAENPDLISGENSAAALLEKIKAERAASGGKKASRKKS
Assay: co-purification with SDS-PAGE; EcoKI MTase preparation with EGFP-His-tagged S subunit shown on SDS-PAGE for comparison; its preparation is not told here (ref. 14)

B1: M subunit of the EcoKI MTase (protein, UniProt P08957 1-529)
chain: MNNNDLVAKLWKLCDNLRDGGVSYQNYVNELASLLFLKMCKETGQEAEYLPEGYRWDDLKSRIGQEQLQFYRKMLVHLGEDDKKLVQAVFHNVSTTITEPKQITALVSNMDSLDWYNGAHGKSRDDFGDMYEGLLQKNANETKSGAGQYFTPRPLIKTIIHLLKPQPREVVQDPAAGTAGFLIEADRYVKSQTNDLDDLDGDTQDFQIHRAFIGLELVPGTRRLALMNCLLHDIEGNLDHGGAIRLGNTLGSDGENLPKAHIVATNPPFGSAAGTNITRTFVHPTSNKQLCFMQHIIETLHPGGRAAVVVPDNVLFEGGKGTDIRRDLMDKCHLHTILRLPTGIFYAQGVKTNVLFFTKGTVANPNQDKNCTDDVWVYDLRTNMPSFGKRTPFTDEHLQPFERVYGEDPHGLSPRTEGEWSFNAEETEVADSEENKNTDQHLATSRWRKFSREWIRTAKSDSLDISWLKDKDSIDADSLPEPDVLAAEAMGELVQALSELDALMRELGASDEADLQRQLLEEAFGGVKE
With B1 the binding was “binds”.
